# Measurements from the supplement of paper PMC6411743.
# Chains of the proteins cited; added tags and fusions are not shown. Lines headed by an entry give the natural chain unless they say otherwise; changes in a name come on top.
# UniProt Q96RS0: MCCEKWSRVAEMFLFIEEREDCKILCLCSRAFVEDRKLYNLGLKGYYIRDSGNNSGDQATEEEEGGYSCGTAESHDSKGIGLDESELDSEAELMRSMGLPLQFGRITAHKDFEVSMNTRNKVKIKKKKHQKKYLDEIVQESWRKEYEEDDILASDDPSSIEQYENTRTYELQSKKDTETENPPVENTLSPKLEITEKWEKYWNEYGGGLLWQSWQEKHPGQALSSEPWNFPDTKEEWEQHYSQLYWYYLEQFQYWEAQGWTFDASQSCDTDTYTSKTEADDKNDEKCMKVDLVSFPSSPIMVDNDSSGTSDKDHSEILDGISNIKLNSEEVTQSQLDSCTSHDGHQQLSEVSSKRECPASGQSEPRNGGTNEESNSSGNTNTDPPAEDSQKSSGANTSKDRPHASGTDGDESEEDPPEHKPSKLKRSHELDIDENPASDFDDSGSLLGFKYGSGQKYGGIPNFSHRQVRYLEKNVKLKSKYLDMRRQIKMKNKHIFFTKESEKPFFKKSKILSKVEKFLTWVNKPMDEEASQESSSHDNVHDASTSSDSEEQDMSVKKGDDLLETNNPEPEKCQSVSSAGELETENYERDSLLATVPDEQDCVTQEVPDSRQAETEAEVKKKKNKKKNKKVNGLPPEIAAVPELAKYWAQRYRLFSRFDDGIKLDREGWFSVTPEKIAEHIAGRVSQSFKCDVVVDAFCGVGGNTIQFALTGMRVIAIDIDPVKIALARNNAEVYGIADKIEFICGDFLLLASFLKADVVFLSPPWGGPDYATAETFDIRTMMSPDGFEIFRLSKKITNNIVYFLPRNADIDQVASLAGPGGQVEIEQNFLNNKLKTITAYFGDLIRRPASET
# UniProt Q96SZ5, whole entry: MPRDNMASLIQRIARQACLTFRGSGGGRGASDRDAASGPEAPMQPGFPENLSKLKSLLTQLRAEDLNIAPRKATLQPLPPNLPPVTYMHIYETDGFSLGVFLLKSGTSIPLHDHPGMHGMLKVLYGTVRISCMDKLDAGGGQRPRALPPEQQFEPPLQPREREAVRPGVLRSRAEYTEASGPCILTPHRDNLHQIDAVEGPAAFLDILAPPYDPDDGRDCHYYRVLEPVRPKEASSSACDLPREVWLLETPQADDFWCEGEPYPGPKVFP
# UniProt Q9BW19: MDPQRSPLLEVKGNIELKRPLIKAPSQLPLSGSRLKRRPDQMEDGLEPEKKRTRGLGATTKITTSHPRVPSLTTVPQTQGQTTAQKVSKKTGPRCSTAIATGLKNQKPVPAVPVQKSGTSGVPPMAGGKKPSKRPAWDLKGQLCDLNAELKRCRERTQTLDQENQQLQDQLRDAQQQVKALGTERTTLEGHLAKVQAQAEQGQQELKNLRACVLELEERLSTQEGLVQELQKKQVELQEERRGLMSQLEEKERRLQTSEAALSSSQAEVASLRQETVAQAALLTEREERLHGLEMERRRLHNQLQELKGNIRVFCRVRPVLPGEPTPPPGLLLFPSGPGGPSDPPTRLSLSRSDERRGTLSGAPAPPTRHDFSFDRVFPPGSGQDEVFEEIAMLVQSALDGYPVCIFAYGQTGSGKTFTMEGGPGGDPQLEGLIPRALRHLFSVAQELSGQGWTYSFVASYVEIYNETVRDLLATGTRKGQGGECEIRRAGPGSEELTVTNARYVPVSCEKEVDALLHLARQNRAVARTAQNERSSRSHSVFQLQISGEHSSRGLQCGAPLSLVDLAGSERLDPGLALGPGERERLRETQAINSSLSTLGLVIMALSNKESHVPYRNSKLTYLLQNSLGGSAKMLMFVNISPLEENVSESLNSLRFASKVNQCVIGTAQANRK
# UniProt Q96PE7: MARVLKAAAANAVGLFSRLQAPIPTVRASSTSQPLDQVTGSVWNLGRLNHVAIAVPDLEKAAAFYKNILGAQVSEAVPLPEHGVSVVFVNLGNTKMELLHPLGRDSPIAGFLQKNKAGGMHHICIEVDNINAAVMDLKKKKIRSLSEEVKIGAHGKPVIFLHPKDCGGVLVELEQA
# UniProt Q9BS26: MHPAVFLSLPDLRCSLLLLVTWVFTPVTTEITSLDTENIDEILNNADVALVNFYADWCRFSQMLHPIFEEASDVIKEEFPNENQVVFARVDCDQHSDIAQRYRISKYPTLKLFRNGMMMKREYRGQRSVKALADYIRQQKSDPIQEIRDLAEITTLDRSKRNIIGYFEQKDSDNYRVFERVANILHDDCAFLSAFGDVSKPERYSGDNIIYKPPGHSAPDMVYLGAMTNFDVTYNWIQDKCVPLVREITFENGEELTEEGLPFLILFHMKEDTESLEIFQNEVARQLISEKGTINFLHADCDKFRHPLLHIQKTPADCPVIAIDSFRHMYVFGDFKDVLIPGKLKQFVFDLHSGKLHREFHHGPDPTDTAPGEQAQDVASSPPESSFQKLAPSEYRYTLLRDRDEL
# ± gives the standard deviation of the averaged measurements. This is one part of the list.
# Compound: Nc1nc2c(ncn2[C@@H]2O[C@H](COP(=O)(O)OP(=O)(O)OP(=O)(O)O)[C@@H](O)[C@H]2O)c(=O)[nH]1 [guanosine triphosphate]
# Test: NP40-soluble protein abundance relative to vehicle (solubility fold change) (ratio); higher = more soluble protein in presence of GTP
# Experimental: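 Solubility proteome profiling in Jurkat crude lysate. Lysate was treated with Mg-GTP (0.1-10 mM) for 10 min at room temperature and 3 min at 37 °C, then solubilised with 0.8% NP40 and benzonase, followed by ultracentrifugation. Proteins were quantified by TMT10 LC-MS/MS; the value is the NP40-soluble abundance relative to the NP40-processed vehicle, from 3 independent experiments.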
Target,NP40-soluble protein abundance (concentration: 0.1mM),NP40-soluble protein abundance (concentration: 0.5mM),NP40-soluble protein abundance (concentration: 1mM),NP40-soluble protein abundance (concentration: 2mM),NP40-soluble protein abundance (concentration: 4mM),NP40-soluble protein abundance (concentration: 6mM),NP40-soluble protein abundance (concentration: 8mM),NP40-soluble protein abundance (concentration: 10mM)
TGS1 (UniProt Q96RS0),1.03 ± 0.083,1.04 ± 0.027,0.992 ± 0.024,1.01 ± 0.027,0.999 ± 0.088,1.03 ± 0.058,1.04 ± 0.088,1.03 ± 0.027
ADO (UniProt Q96SZ5),0.981 ± 0.018,0.94 ± 0.016,0.961 ± 0.051,0.951 ± 0.043,0.926 ± 0.075,0.91 ± 0.055,0.932 ± 0.088,0.959 ± 0.013
KIFC1 (UniProt Q9BW19),0.975 ± 0.051,1.01 ± 0.073,0.996 ± 0.058,0.996 ± 0.072,1.01 ± 0.091,1.05 ± 0.079,1.06 ± 0.048,1.08 ± 0.064
MCEE (UniProt Q96PE7),1 ± 0.081,0.962 ± 0.063,0.957 ± 0.08,0.959 ± 0.039,0.939 ± 0.017,0.933 ± 0.082,0.912 ± 0.079,0.919 ± 0.053
UniProt Q9BS26,0.969 ± 0.065,0.949 ± 0.059,0.921 ± 0.056,0.894 ± 0.059,0.898 ± 0.062,0.888 ± 0.049,0.896 ± 0.066,0.877 ± 0.066
